Patent US20250195488A1, “MEDICINE CONTAINING VITAMIN D DERIVATIVE OR PHARMACEUTICALLY ACCEPTABLE SALT OR SOLVATE THEREOF, USED IN COMBINATION WITH IMMUNOMODULATORY SUBSTANCE” (TEEJIN PHARMA LIMITED, priority 2022, published 2025)
No dose or concentration is given here for some results.

System: rat oligodendrocyte progenitor cells
Assay: Promotive activity of rat oligodendrocyte progenitor cell differentiation-2 (immunostaining of MBP)
Type: cell-based
Conditions: t-test vs DMSO group
Description: The promotive activity of oligodendrocyte progenitor cell (OPC) differentiation of the vitamin D derivatives was evaluated by immunostaining of MBP.
Subsequently, oligodendrocyte progenitor cell separation medium was added to the flask, and the mixture was similarly shaken for about 22 hours (37° C., 200 rpm), and the supernatant was collected to prepare oligodendrocyte progenitor cells.

`C[C@H](CN1CCCC[C@H]1C)[C@H]1CC[C@H]2/C(=C/C=C3C[C@@H](O)C[C@H](O)C3)CCC[C@]12C` [Compound G002, (1R,3R)-5-(2-((1R,3aS,7aR,E)-7a-methyl-1-((S)-1-((R)-2-methylpiperidin-1-yl)propan-2-yl)octahydro-4H-inden-4-ylidene)ethylidene)cyclohexane-1,3-diol] was tested. Which Significant difference (Test 3) did it give?
The Significant difference was “**** (<0.0001)”.

For `C[C@H](CN1CCCCC1(C)C)[C@H]1CC[C@H]2/C(=C/C=C3C[C@@H](O)C[C@H](O)C3)CCC[C@]12C` [Compound G003, (1R,3R)-5-(2-((1R,3aS,7aR,E)-1-((S)-1-(2,2-dimethylpiperidin-1-yl)propan-2-yl)-7a-methyloctahydro-4H-inden-4-ylidene)ethylidene)cyclohexane-1,3-diol], which Significant difference (Test 3) is on record?
Its Significant difference is “**** (<0.0001)”.

Which Significant difference (Test 3) does the source give for `C[C@H](CN1CCOC[C@@H]1C)[C@H]1CC[C@H]2/C(=C/C=C3C[C@@H](O)C[C@H](O)C3)CCC[C@]12C` [Compound G004, (1R,3R)-5-(2-((1R,3aS,7aR,E)-7a-methyl-1-((S)-1-((S)-3-methylmorpholino)propan-2-yl)octahydro-4H-inden-4-ylidene)ethylidene)cyclohexane-1,3-diol] here?
Its Significant difference is “**** (<0.0001)”.

How did the Significant difference (Test 3) turn out when `C[C@H](CN1CCOC[C@H]1C)[C@H]1CC[C@H]2/C(=C/C=C3C[C@@H](O)C[C@H](O)C3)CCC[C@]12C` [Compound G005, (1R,3R)-5-(2-((1R,3aS,7aR,E)-7a-methyl-1-((S)-1-((R)-3-methylmorpholino)propan-2-yl)octahydro-4H-inden-4-ylidene)ethylidene)cyclohexane-1,3-diol] was run?
The Significant difference was “**** (<0.0001)”.

With `C[C@H](CN1CCOCC1(C)C)[C@H]1CC[C@H]2/C(=C/C=C3C[C@@H](O)C[C@H](O)C3)CCC[C@]12C` [Compound G006, (1R,3R)-5-(2-((1R,3aS,7aR,E)-1-((S)-1-(3,3-dimethylmorpholino)propan-2-yl)-7a-methyloctahydro-4H-inden-4-ylidene)ethylidene)cyclohexane-1,3-diol] as the compound, how does the Significant difference (Test 4) read?
Its Significant difference is “**** (<0.0001)”.

With `C[C@H](CN1CCOCC12CC2)[C@H]1CC[C@H]2/C(=C/C=C3C[C@@H](O)C[C@H](O)C3)CCC[C@]12C` [Compound G007, (1R,3R)-5-(2-((1R,3aS,7aR,E)-1-((S)-1-(7-oxa-4-azaspiro[2.5]octan-4-yl)propan-2-yl)-7a-methyloctahydro-4H-inden-4-ylidene)ethylidene)cyclohexane-1,3-diol] as the compound, how does the Significant difference (Test 4) read?
Its Significant difference is “**** (<0.0001)”.

For `C[C@H](CN1CCOC[C@@H]1C1CC1)[C@H]1CC[C@H]2/C(=C/C=C3C[C@@H](O)C[C@H](O)C3)CCC[C@]12C` [Compound G008, (1R,3R)-5-(2-((1R,3aS,7aR,E)-1-((S)-1-((S)-3-cyclopropylmorpholino)propan-2-yl)-7a-methyloctahydro-4H-inden-4-ylidene)ethylidene)cyclohexane-1,3-diol], which Significant difference (Test 5) is on record?
Its Significant difference is “**** (<0.0001)”.

With `C[C@H](CN1CCN(C)C[C@@H]1C)[C@H]1CC[C@H]2/C(=C/C=C3C[C@@H](O)C[C@H](O)C3)CCC[C@]12C` [Compound G011, (1R,3R)-5-(2-((1R,3aS,7aR,E)-1-((S)-1-((S)-2,4-dimethylpiperazin-1-yl)propan-2-yl)-7a-methyloctahydro-4H-inden-4-ylidene)ethylidene)cyclohexane-1,3-diol] as the compound, how does the Significant difference (Test 5) read?
The Significant difference was “** (<0.01)”.

Which Significant difference (Test 5) does the source give for `C[C@H](CN1CCN(C)C[C@H]1C)[C@H]1CC[C@H]2/C(=C/C=C3C[C@@H](O)C[C@H](O)C3)CCC[C@]12C` [Compound G012, (1R,3R)-5-(2-((1R,3aS,7aR,E)-1-((S)-1-((R)-2,4-dimethylpiperazin-1-yl)propan-2-yl)-7a-methyloctahydro-4H-inden-4-ylidene)ethylidene)cyclohexane-1,3-diol] here?
Its Significant difference is “* (<0.05)”.

With `C[C@H](CN1CCC[C@@H]1C(C)(C)O)[C@H]1CC[C@H]2/C(=C/C=C3C[C@@H](O)C[C@H](O)C3)CCC[C@]12C` [Compound G013, (1R,3R)-5-(2-((1R,3aS,7aR,E)-1-((S)-1-((R)-2-(2-hydroxypropan-2-yl)pyrrolidin-1-yl)propan-2-yl)-7a-methyloctahydro-4H-inden-4-ylidene)ethylidene)cyclohexane-1,3-diol] as the compound, how does the Significant difference (Test 6) read?
The Significant difference was “**** (<0.0001)”.

How did the Significant difference (Test 6) turn out when `C[C@H](CN1CCC[C@H]1C(C)(C)O)[C@H]1CC[C@H]2/C(=C/C=C3C[C@@H](O)C[C@H](O)C3)CCC[C@]12C` [Compound G014, (1R,3R)-5-(2-((1R,3aS,7aR,E)-1-((S)-1-((S)-2-(2-hydroxypropan-2-yl)pyrrolidin-1-yl)propan-2-yl)-7a-methyloctahydro-4H-inden-4-ylidene)ethylidene)cyclohexane-1,3-diol] was run?
The Significant difference was “**** (<0.0001)”.

How did the Significant difference (Test 6) turn out when `COC(C)(C)[C@H]1CCCN1C[C@@H](C)[C@H]1CC[C@H]2/C(=C/C=C3C[C@@H](O)C[C@H](O)C3)CCC[C@]12C` [Compound G015, (1R,3R)-5-(2-((1R,3aS,7aR,E)-1-((S)-1-((R)-2-(2-methoxypropan-2-yl)pyrrolidin-1-yl)propan-2-yl)-7a-methyloctahydro-4H-inden-4-ylidene)ethylidene)cyclohexane-1,3-diol] was run?
Its Significant difference is “**** (<0.0001)”.

With `COC(C)(C)[C@@H]1CCCN1C[C@@H](C)[C@H]1CC[C@H]2/C(=C/C=C3C[C@@H](O)C[C@H](O)C3)CCC[C@]12C` [Compound G016, (1R,3R)-5-(2-((1R,3aS,7aR,E)-1-((S)-1-((S)-2-(2-methoxypropan-2-yl)pyrrolidin-1-yl)propan-2-yl)-7a-methyloctahydro-4H-inden-4-ylidene)ethylidene)cyclohexane-1,3-diol] as the compound, how does the Significant difference (Test 7) read?
The Significant difference was “*** (<0.001)”.

How did the Significant difference (Test 6) turn out when `C[C@H](CCN1CCCC[C@@H]1C)[C@H]1CC[C@H]2/C(=C/C=C3C[C@@H](O)C[C@H](O)C3)CCC[C@]12C` [Compound G017, (1R,3R)-5-(2-((1R,3aS,7aR,E)-7a-methyl-1-((R)-4-((S)-2-methylpiperidin-1-yl)butan-2-yl)octahydro-4H-inden-4-ylidene)ethylidene)cyclohexane-1,3-diol] was run?
Its Significant difference is “**** (<0.0001)”.

For `C[C@H](CCN1CCCC[C@H]1C)[C@H]1CC[C@H]2/C(=C/C=C3C[C@@H](O)C[C@H](O)C3)CCC[C@]12C` [Compound G018, (1R,3R)-5-(2-((1R,3aS,7aR,E)-7a-methyl-1-((R)-4-((R)-2-methylpiperidin-1-yl)butan-2-yl)octahydro-4H-inden-4-ylidene)ethylidene)cyclohexane-1,3-diol], which Significant difference (Test 6) is on record?
The Significant difference was “**** (<0.0001)”.

`C=C1[C@H](O)CC(=C/C=C2\CCC[C@]3(C)[C@@H]([C@H](C)CN4CCCC[C@@H]4C)CC[C@@H]23)C[C@H]1O` [Compound H001, (1R,3R)-5-(2-((1R,3aS,7aR,E)-7a-methyl-1-((S)-1-((S)-2-methylpiperidin-1-yl)propan-2-yl)octahydro-4H-inden-4-ylidene)ethylidene)-2-methylenecyclohexane-1,3-diol] was tested. Which Significant difference (Test 7) did it give?
Its Significant difference is “**** (<0.0001)”.

For `C=C1[C@H](O)CC(=C/C=C2\CCC[C@]3(C)[C@@H]([C@H](C)CN4CCCC[C@H]4C)CC[C@@H]23)C[C@H]1O` [Compound H002, (1R,3R)-5-(2-((1R,3aS,7aR,E)-7a-methyl-1-((S)-1-((R)-2-methylpiperidin-1-yl)propan-2-yl)octahydro-4H-inden-4-ylidene)ethylidene)-2-methylenecyclohexane-1,3-diol], which Significant difference (Test 9) is on record?
Its Significant difference is “**** (<0.0001)”.
